Reference: paper PMC5533735

Amino acid sequences for entries named in this document (tags omitted). A change or cut given only in a name is not applied to a line headed by its entry.
UniProt Q9VMD4: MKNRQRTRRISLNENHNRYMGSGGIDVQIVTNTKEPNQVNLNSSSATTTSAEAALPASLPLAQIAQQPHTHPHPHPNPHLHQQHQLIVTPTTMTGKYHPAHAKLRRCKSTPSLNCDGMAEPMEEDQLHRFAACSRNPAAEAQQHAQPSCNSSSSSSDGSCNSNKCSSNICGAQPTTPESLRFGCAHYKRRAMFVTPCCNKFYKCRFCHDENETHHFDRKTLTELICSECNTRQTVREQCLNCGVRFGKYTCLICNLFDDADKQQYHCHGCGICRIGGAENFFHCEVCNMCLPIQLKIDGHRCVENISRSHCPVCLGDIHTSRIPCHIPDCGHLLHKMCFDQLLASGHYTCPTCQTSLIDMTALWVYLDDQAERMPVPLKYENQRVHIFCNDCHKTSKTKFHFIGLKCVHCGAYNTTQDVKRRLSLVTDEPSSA

T1: cyclin dependent kinase 9 (cdk9) (Drosophila melanogaster (endogenous in whole flies)) (UniProt O17432)
T1 sequence: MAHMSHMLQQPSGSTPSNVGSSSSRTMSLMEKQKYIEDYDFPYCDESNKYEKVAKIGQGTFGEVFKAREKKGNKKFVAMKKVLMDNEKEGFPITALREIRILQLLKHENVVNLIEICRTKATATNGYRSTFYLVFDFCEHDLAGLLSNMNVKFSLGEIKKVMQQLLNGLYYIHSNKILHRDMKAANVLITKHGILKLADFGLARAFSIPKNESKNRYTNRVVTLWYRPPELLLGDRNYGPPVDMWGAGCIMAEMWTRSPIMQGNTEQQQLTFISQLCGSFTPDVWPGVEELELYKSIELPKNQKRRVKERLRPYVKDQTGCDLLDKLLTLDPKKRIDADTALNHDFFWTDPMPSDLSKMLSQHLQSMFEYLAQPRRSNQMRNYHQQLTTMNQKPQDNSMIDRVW


What was measured:
[1] = target: T1, cyclin dependent kinase 9 (cdk9) (Drosophila melanogaster (endogenous in whole flies)); assay: co-IP; anti-cdk9 (mouse) with whole-fly lysate (Repo-Gal4 > UAS-GFP and Repo-Gal4 > UAS-CG16947) in RIPA buffer with 10 µM MG132 throughout lysis and co-immunoprecipitation, Protein A Sepharose; blot probed with anti-CG16947
[2] = target: CG16947 (Drosophila melanogaster) (UniProt Q9VMD4); assay: co-IP; anti-CG16947 (rabbit) with 2.5 mg of whole-fly lysate (1d post-eclosion; Repo-Gal4 > UAS-GFP and Repo-Gal4 > UAS-CG16947) in RIPA buffer overnight at 4 °C, Protein A Sepharose, elution with SDS loading buffer without DTT; blot probed with anti-cdk9

Row | binding [1] | binding [2] | Molecule
1 | binds |  | CG16947 (from UniProt Q9VMD4)
2 |  | binds | cyclin dependent kinase 9 (cdk9) (protein, UniProt O17432 1-404) MAHMSHMLQQPSGSTPSNVGSSSSRTMSLMEKQKYIEDYDFPYCDESNKYEKVAKIGQGTFGEVFKAREKKGNKKFVAMKKVLMDNEKEGFPITALREIRILQLLKHENVVNLIEICRTKATATNGYRSTFYLVFDFCEHDLAGLLSNMNVKFSLGEIKKVMQQLLNGLYYIHSNKILHRDMKAANVLITKHGILKLADFGLARAFSIPKNESKNRYTNRVVTLWYRPPELLLGDRNYGPPVDMWGAGCIMAEMWTRSPIMQGNTEQQQLTFISQLCGSFTPDVWPGVEELELYKSIELPKNQKRRVKERLRPYVKDQTGCDLLDKLLTLDPKKRIDADTALNHDFFWTDPMPSDLSKMLSQHLQSMFEYLAQPRRSNQMRNYHQQLTTMNQKPQDNSMIDRVW

These are yes or no findings as the source states them, for the method shown. In cells and extracts the contact can be indirect. A result given as binding can be weak or reduced; the word gives no strength.
